Results deposited as PubChem BioAssay AID743454 (Peter MacCallum Cancer Centre, 2014)
Purpose: 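Search for knock-downs that restore vorinostat killing in resistant colon cancer cells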 (primary screen). Cell system: human HCT116-VR colon cancer cells, selected for vorinostat resistance. Knock-down reagent: siRNA pool against human genes, 40 nM siRNA pool. Time to read-out: vorinostat for 24 h, read-out about 72 h after transfection. Challenge: vorinostat at 2.5 µM final. Measurement: 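Two measures, CellTiter-Fluor viability and luminescent caspase 3/7 activity, each as fold change against same-plate mock wells, mean of duplicates, then screen-wide robust z-score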. Scale: viability robust z-score: higher = more viable cells than screen typical; caspase robust z-score: higher = more caspase 3/7 activity than screen typical. Call rule: 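a knock-down is a hit when classed RV1 or RV2 for lowered viability, or CA1 or CA2 for caspase activation; those lethal without drug were dropped; hits were retested singly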.
This is one part, drawn at random, of about 18,000 deposited reagents. 450 of all reagents (2.5%) were called active. 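Single biological run; no consistent viability z cut-off exists, so the class columns, not z-scores, define the calls.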

Knock-down of TPT1P8 (TPT1 pseudogene 8) resulted in: viability hit class no change; caspase hit class no change; viability robust z-score -0.32; caspase robust z-score 0.56; inactive.
Silencing of PRDM4 (PR/SET domain 4) gave: viability hit class no change; caspase hit class no change; viability robust z-score 0.11; caspase robust z-score -1.12; inactive.
AP1G1 (adaptor related protein complex 1 subunit gamma 1) scored viability hit class no change; caspase hit class no change; viability robust z-score 1.35; caspase robust z-score -0.48; inactive.
Against B3GALT6 (beta-1,3-galactosyltransferase 6) the deposit lists viability hit class no change; caspase hit class no change; viability robust z-score 0.84; caspase robust z-score -0.29; inactive.
For DNAH5 (dynein axonemal heavy chain 5), the entry reads viability hit class no change; caspase hit class no change; viability robust z-score 1.09; caspase robust z-score -0.1; inactive.
Against VPS26C (VPS26 endosomal protein sorting factor C), the entry reads viability hit class no change; caspase hit class no change; viability robust z-score 0.71; caspase robust z-score -0.3; inactive.
For ARHGAP5 (Rho GTPase activating protein 5) the deposit lists viability hit class no change; caspase hit class no change; viability robust z-score -0.08; caspase robust z-score 0.36; inactive.
Silencing of MVB12B (multivesicular body subunit 12B) resulted in: viability hit class no change; caspase hit class no change; viability robust z-score -2.44; caspase robust z-score 2.77; inactive.
Knock-down of SLC25A35 resulted in: viability hit class no change; caspase hit class no change; viability robust z-score 0.64; caspase robust z-score 2.37; inactive.
Depletion of MRPL13 (mitochondrial ribosomal protein L13) gave: viability hit class no change; caspase hit class no change; viability robust z-score 1.46; caspase robust z-score -1.08; inactive.
GIPC1 (GIPC PDZ domain containing family member 1) scored viability hit class no change; caspase hit class no change; viability robust z-score 0.02; caspase robust z-score -0.22; inactive.

An excerpt from above, limited to “viability hit class”:
MVB12B (multivesicular body subunit 12B) = no change
SLC25A35 = no change
MRPL13 (mitochondrial ribosomal protein L13) = no change

Additional reagents:
For MS4A8 (membrane spanning 4-domains A8), the values are viability hit class no change; caspase hit class no change; viability robust z-score -0.34; caspase robust z-score -0.48; inactive.
After knock-down of TCF7 (transcription factor 7), the record shows viability hit class no change; caspase hit class no change; viability robust z-score -1; caspase robust z-score -0.44; inactive.
With knock-down of WFIKKN1, the screen gave viability hit class no change; caspase hit class no change; viability robust z-score 0.24; caspase robust z-score -0.76; inactive.
NDRG4 (NDRG family member 4) scored viability hit class no change; caspase hit class no change; viability robust z-score -0.97; caspase robust z-score -1.16; inactive.
Knock-down of SNX21 (sorting nexin family member 21) came out at: viability hit class no change; caspase hit class no change; viability robust z-score -0.08; caspase robust z-score -0.46; inactive.
RAD18 (RAD18 E3 ubiquitin protein ligase) gave viability hit class no change; caspase hit class no change; viability robust z-score -0.54; caspase robust z-score -0.98; inactive.
HNRNPUL2 (heterogeneous nuclear ribonucleoprotein U like 2) gave viability hit class no change; caspase hit class no change; viability robust z-score 0.21; caspase robust z-score 0.54; inactive.
After knock-down of ANTXR2 (ANTXR cell adhesion molecule 2), the screen gave viability hit class no change; caspase hit class no change; viability robust z-score 1.09; caspase robust z-score 0.72; inactive.
After knock-down of WWC2 (WW and C2 domain containing 2) the results were viability hit class no change; caspase hit class no change; viability robust z-score -0.46; caspase robust z-score -0.41; inactive.
With knock-down of C17orf67 (chromosome 17 open reading frame 67), the record shows viability hit class no change; caspase hit class no change; viability robust z-score 0.36; caspase robust z-score 0.48; inactive.
